Data from publication PMC6056500, “Novel interactomics approach identifies ABCA1 as direct target of evodiamine, which increases macrophage cholesterol efflux” (Scientific Reports, 2018).

Biological target: T1, recombinant ABCA1 peptide (Abcam #ab125995, covering C-terminal domain 2085-2245aa) (UniProt O95477)
T1 sequence: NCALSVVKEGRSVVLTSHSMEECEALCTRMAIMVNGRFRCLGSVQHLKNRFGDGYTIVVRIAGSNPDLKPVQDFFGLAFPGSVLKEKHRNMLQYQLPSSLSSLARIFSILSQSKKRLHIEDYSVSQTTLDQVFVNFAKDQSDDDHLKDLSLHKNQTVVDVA
Experiment: SPR; Biacore 3000; ABCA1 peptide immobilised on a CM5 chip by amine coupling; proteins dialysed against HBS-E (10 mM Hepes, 150 mM NaCl, 3 mM EDTA); ALDH1A1 injected at 6e-8 to 1e-6 M; 1:1 fit (Langmuir or drifting baseline); both purified

natural human LMW (low molecular weight) kininogen
binding: no binding

No constants are given. Whether binding was seen depends on the method and setting.
